# In all, about 33,000 sequences were measured (“E-score (-0.5 to 0.5)”: median about -0.016, highest 2% from about 0.3 on). The list shows a part of the results.
# Biological target: T1, Yer184c (UniProt P39961)
# T1 sequence: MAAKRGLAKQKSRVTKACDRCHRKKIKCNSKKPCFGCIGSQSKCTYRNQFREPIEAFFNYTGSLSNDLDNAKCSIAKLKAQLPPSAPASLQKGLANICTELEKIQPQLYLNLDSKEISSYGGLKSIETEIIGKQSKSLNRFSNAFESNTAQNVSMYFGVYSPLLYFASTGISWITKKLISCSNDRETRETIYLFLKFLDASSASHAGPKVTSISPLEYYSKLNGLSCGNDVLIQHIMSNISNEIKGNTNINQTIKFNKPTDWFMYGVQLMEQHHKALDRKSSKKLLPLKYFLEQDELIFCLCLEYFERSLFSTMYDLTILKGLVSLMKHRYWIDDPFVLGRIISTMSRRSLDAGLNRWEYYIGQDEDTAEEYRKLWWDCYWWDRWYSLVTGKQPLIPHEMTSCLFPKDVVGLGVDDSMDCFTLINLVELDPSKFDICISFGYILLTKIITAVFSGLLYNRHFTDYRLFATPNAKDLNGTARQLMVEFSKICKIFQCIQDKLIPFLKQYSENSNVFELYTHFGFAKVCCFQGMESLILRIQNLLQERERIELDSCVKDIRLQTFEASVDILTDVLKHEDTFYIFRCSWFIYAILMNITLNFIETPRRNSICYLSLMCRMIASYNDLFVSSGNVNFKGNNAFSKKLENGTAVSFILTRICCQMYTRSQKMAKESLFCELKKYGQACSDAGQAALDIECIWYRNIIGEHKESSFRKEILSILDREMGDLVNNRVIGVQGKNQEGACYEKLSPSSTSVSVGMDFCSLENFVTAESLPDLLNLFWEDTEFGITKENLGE
# Assay: PBM E-score (8-mer binding enrichment) (E-score (-0.5 to 0.5)); higher = stronger / more preferred TF binding
# Conditions: protein concentration: 100 nM; construct: GST-full length
# Method: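 Universal 'all 10-mer' protein binding microarrays (Agilent AMADID 015681) probed with GST-tagged S. cerevisiae TFs (full-length or DBD) made by in vitro transcription/translation (PURExpress), about 100-200 nM. Bound TF was detected with fluorescent anti-GST. Each ungapped 8-mer (which stands for itself and its reverse complement) is scored by the PBM enrichment score (E-score), a modified Wilcoxon-Mann-Whitney statistic from -0.5 to +0.5, computed with the Universal PBM Analysis Suite. Scale: above 0.35 generally sequence-specific binding.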
row,Sequence,PBM E-score
1,CTTCTACC,-0.103
2,AAAGTACC,0.0107
3,TATAGAAA,0.132
4,AGACCGTC,-0.122
5,CCTCCGCG,0.123
6,GTTCGCAA,0.168
7,ACTATAGT,0.207
8,AATATCAG,0.067
9,CTGCGGGC,-0.00643
10,CTGCGGCC,0.08
11,CTTAAAAC,0.248
12,CATTAAAG,0.0705
13,CGCTAGAC,-0.233
14,AATCGGGT,0.173
15,ACAACACC,0.0736
16,AAGGCCTG,-0.215
17,AGCGGGGC,-0.154
18,AGCGAATG,-0.173
19,ACCATACG,-0.0112
20,GGTTTACA,0.118
21,AAACATGC,-0.00781
22,AGTAACGC,-0.105

row,Sequence,PBM E-score
1,ATTAGCTG,-0.00785
2,GCTTCAGA,0.0432
3,ATCCAAAA,0.215
4,CCATAAGA,-0.0477
5,CTCATGAG,-0.0289
6,GAACTAGC,-0.00217
7,CAGAAACG,0.169
8,GCGTCACC,-0.329
9,AACCTTCC,-0.0555
10,CTGAAATA,0.118
11,ATCGAAAA,0.172
12,AAAGTTTA,0.214
13,TAATTACA,0.169
14,CGGGCGCA,0.106
15,GATGAAAC,0.126
16,AGCCGCTG,0.0377
17,ACCCGTGA,-0.063
18,CACCTTCA,-0.287
19,ACCACACC,-0.227
20,CTGCTAAC,-0.0371
21,AAGGAGGT,-0.248
22,GGGACCCC,-0.348

row,Sequence,PBM E-score
1,CTCCTCGC,-0.236
2,AGCCGCTC,0.0879
3,ATATGCGG,0.111
4,CAAGTACC,0.0757
5,ACGGAGTG,0.0134
6,AGCGCCAT,-0.249
7,AGATCCCT,-0.229
8,AACTCTAG,-0.145
9,AGGTCGGC,0.0664
10,AAAATGAG,-0.0562
11,CACAGGGG,-0.376
12,CACTGTGC,-0.0193
13,AATGACGG,0.19
14,TGCGAACA,0.06
15,GGGGAAGA,-0.148
16,ATCGCTAG,-0.0934
17,ACCATCCC,-0.0549
18,CTTCCCTA,-0.13
19,ACTCCAAA,-0.126
20,AGTTGCCA,-0.0248
21,CCTGTCGA,-0.093
22,CTGGTAAC,0.00552

# No new results follow: an excerpt of the list.
row,Sequence,PBM E-score
6,GTTCGCAA,0.168
7,ACTATAGT,0.207
8,AATATCAG,0.067
9,CTGCGGGC,-0.00643
10,CTGCGGCC,0.08
11,CTTAAAAC,0.248
12,CATTAAAG,0.0705

# The list goes on:

row,Sequence,PBM E-score
1,GCACCCAC,0.0359
2,ATAAGCGG,-0.122
3,AATCTGGG,-0.209
4,AAGGGGAA,-0.101
5,AGCTAGGA,0.00172
6,AACAGACT,-0.0245
7,ACTAGGAT,0.0501
8,CCCGTACC,0.0297
9,AAGACAGT,0.0136
10,AGTAGAAG,-0.127
11,ACAGGGGC,-0.213
12,CAGTGGTA,-0.206
13,CCCCGAAC,-0.00623
14,AGTATTTC,0.277
15,GATTCTCC,-0.0624
16,TATGTGGA,0.124
17,ATGACCGG,0.00805
18,CCCCTGAC,-0.0911
19,AAACTCGT,-0.061
20,CCCTTCAA,-0.0283

# — the supplement of paper PMC3334620
